Publication PMC10442235
Results are given in words; binding and its absence hold for the method and conditions named. Binding can be weak; no strength is given.

By UniProt entry, the sequences of proteins in these tests, tags left out. Where a name states a change or a piece, a line headed by the entry shows the natural chain unless it says otherwise.
UniProt G0S5S6: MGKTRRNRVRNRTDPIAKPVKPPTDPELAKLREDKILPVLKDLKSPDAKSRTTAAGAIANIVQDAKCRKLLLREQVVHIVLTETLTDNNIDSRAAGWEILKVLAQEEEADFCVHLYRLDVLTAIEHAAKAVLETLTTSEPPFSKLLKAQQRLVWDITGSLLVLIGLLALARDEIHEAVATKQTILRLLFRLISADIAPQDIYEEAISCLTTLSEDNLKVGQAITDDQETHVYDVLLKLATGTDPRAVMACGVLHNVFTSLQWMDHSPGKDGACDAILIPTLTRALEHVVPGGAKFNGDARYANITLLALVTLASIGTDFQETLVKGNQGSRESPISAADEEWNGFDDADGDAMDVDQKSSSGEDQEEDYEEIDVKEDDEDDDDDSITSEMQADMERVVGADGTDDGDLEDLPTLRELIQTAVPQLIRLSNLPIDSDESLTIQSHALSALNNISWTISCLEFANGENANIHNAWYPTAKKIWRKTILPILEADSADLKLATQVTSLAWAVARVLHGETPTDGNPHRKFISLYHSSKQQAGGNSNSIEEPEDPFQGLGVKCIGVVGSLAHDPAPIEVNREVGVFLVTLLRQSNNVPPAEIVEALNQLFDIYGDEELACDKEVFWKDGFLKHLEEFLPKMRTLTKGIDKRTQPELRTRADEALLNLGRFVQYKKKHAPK
UniProt G0SHQ2: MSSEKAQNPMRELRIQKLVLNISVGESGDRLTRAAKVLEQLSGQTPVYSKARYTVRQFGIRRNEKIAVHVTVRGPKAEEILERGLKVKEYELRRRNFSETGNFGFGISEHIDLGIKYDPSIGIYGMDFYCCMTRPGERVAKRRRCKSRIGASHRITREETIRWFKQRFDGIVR
UniProt G0SEG2: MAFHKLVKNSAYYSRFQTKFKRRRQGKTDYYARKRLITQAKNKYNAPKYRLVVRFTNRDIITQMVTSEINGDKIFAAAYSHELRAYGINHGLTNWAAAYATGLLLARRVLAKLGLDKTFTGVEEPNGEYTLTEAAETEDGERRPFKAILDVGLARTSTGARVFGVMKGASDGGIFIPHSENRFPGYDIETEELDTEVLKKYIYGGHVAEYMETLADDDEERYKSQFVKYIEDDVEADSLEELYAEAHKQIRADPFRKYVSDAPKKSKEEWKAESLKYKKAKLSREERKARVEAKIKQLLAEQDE

Assays:
[1] = target: ctSyo1 (Chaetomium thermophilum (endogenous in C. thermophilum)) (UniProt G0S5S6); test: cryo-EM structure; hexameric ct 5S RNP isolated from C. thermophilum via ctRpf2; 3.5 Å; contains 5S rRNA; both purified
[2] = target: ProtA-TEV-ctSyo1 (Chaetomium thermophilum) (UniProt G0S5S6); test: cryo-EM structure; ct–sc 5S RNP chimera split-tag purified from yeast; monomer of the hexamer 4.1 Å, dimer of hexamers 4.0 Å (C2); contains yeast 5S rRNA; both purified

Molecule | binding [1] | binding [2]
ctuL5 (from UniProt G0SHQ2) | binds | –
ctuL18 (from UniProt G0SEG2) | binds | –
endogenous yeast uL18 (protein, UniProt P26321 1-297) MAFQKDAKSSAYSSRFQTPFRRRREGKTDYYQRKRLVTQHKAKYNTPKYRLVVRFTNKDIICQIISSTITGDVVLAAAYSHELPRYGITHGLTNWAAAYATGLLIARRTLQKLGLDETYKGVEEVEGEYELTEAVEDGPRPFKVFLDIGLQRTTTGARVFGALKGASDGGLYVPHSENRFPGWDFETEEIDPELLRSYIFGGHVSQYMEELADDDEERFSELFKGYLADDIDADSLEDIYTSAHEAIRADPAFKPTEKKFTKEQYAAESKKYRQTKLSKEERAARVAAKIAALAGQQ | – | binds
